According to patent US11685741B2, “Fluorescent probes” (University of Massachusetts, priority 2017, dated 2023):

Columns and labels:
ws1 cells = assay: Ratiometric determination of labile Fe2+ concentration in ws1 cells; format: cell-based, human
Method: For concentration determination, human primary fibroblast ws1 cells were grown at 37° C. in a humid atmosphere of 5% CO2 atmosphere in eagle's minimum essential medium (EMEM, ATCC) supplemented with 10% fetal bovine serum (FBS, ATCC). Cultures were divided into 1:2 every 48 h to an approximate cell density of 1.21 million cells/ml and used for experiments after 24 h. In addition, the human colon adenocarcinoma cell line HT29 (ATCC) was routinely grown in Dulbecco's modified Eagle's medium (DMEM) supplemented with 10% fetal bovine serum (FBS, ATCC).
A Zeiss LSM 710 laser-scanning confocal microscope system was used for cell imaging experiments in collaboration with a person in the lab. 40× oil-immersion objective lens were used to perform all the experiments. For imaging with the NIRh-Fret sensor, excitation wavelength of the laser was 633 nm and emissions were collected over the range 650-850 nm. For images with MitoTracker Green FM, LysoTracker Red DND-100, excitation wavelengths recommended by the manufacturer were 488 nm for MitoTracker, 543 nm for LysoTracker. Emissions were integrated at 492-535 nm (MitoTracker), 550-625 nm (LysoTracker), respectively.
To determine the concentration of labile Fe^2+, the ratiometric Fe^2+ sensor, NIRh-Fret, has been developed. The two-bands absorption/fluorescence nature of the ratiometric sensor enables the tracing of the cellular distribution of the sensor itself as well as detecting the labile Fe^2+ pools. When Fe^2+ was added to NIRh-Fret solution, a decrease in intensity at 540 nm of the fluorescence and an increase in intensity at 735 nm were observed (FIGS. 70A-B).
To determine the cellular concentration of Fe^2+, an in-vitro calibration curve was obtained by titrating the sensor, NIRh-Fret (20 μM), with different concentrations of Fe^2+ and a calibration curve was obtained by plotting [Fe^2+] versus fluorescent ratio (F735/F540) (FIG. 71). Ratiometric imaging was performed with 2 different cell lines, HT29 cells and WS1 cells and with iron replete and depleting conditions.
Fitting the ratiometric imaging data to the calibration curve gives Fe^2+ concentration for the first time in ws1 cells, with a value of ˜8±1 μM determined in the mitochondria of untreated cells, 12±1 μM in the mitochondria of Fe (II) treated cells, and 5±1 μM in the mitochondria of the Fe(II)-chelator Bpy treated cells, 71 μM determined in the lysosomes of untreated cells, 10±1 μM in the lysosomes of Fe (II) treated cells, and 5±1 μM in the lysosomes of Bpy treated cells. Cytosol Fe^2+ levels are low which were not readily observed by the imaging pictures. […] By fitting the ratios to the calibration curve, Fe^2+ concentration was determined to be below 1 μM in the cytosol of untreated cells, 3-4 μM in the cytosol of Fe (II) treated cells, and 0 μM in the cytosol of Bpy treated cells. Also Fe^2+ concentrations in HT-29 cells determined to be ˜11±1 μM in the mitochondria of untreated cells, 15±1 μM in mitochondria of Fe (II)-treated cells, and 9±1 μM in mitochondria of Bpy-treated cells and 9±1 μM determined in the lysosomes of untreated cells, 13±1 μM in the lysosomes of Fe (II) treated cells, and 6±1 μM in the lysosomes of Bpy treated cells, below 1 μM determined in the cytosol of untreated cells, 4-5 μM in the cytosol of Fe (II) treated cells, and 0 μM in the cytosol of Bpy treated cells and the results are summarized in Table 2.

HCT-116 cells = assay: Ratiometric determination of labile Fe2+ concentration in HCT-116 cells; format: cell-based, human
Method: Bovine aortic endothelial cells BAEC cells, at an approximately density of 1.3 million/ml in complete EBM medium, were incubated with 100 μM ferrous ammonium sulfate (FAS, Fe (NH4)2(SO4)2 from a 10 mM stock solution) for overnight at 37° C. in a humid atmosphere of 5% CO2 and then the cells were washed with fresh EBM medium to remove excess Fe^2+. Then cells were incubated with Rh101D (10 μM, from 500 μM stock solution in DMF) at 37° C. for 30 min and then cells were washed with EBM media and then imaged. In addition, some cells were treated firstly with 100 μM Fe^2+ overnight and then the cells were washed with fresh EBM medium. For chelation experiments, Fe^2+-loaded cells or untreated cells were incubated with 1 mM 2,2′-bipyridyl (Bpy) at 37° C. for 30 min, then sensor was added followed by washing with the media, and then imaging was done. Controls were imaged without incubation with Fe^2+ or 2,2′-bipyridyl. HCT-116, a human colon adenocarcinoma cell line were used for concentration determination of Fe^2+ with the help of the ratiometric sensor Rh101D. HCT-116 were maintained in McCoy's 5A medium supplemented with 10% fetal bouvine serum and 5% antibiotic antimycotic in a 5% CO2 atmosphere at 37° C. Cultures were divided 1:2 every 48 h to an approximate cell density of 1.21 million cells/ml and used for experiments after 24 h. All experiments were performed with cells in the logarithmic growth phase.
To determine the concentration of labile Fe^2+ in cells, the ratiometric Fe^2+ sensor Rh101D has been developed. The two-band absorption/fluorescence nature of the ratiometric sensor enables the tracing of the cellular distribution of the sensor itself as well as detecting the labile Fe^2+ pools.
To determine the cellular concentration of Fe^2+, an in-vitro calibration curve was obtained by titrating the sensor, Rh101D (20 μM), with different concentrations of Fe^2+ and a calibration curve was obtained by plotting [Fe^2+] versus fluorescent ratio (F625/F500) (FIG. 50).
The in vitro solution studies have shown that Rh101D can detect Fe^2+ with excellent selectivity and the Fe^2+ concentration is correlated with the ratio of fluorescence intensities at 625 nm to 500 nm (FIG. 50). To examine whether it can detect Fe^2+ concentration in living systems, HCT-116, a human colon adenocarcinoma cell line was used to test its ability in determining endogenous Fe^2+ ions in live cells. […] However, in FIG. 51B, red color images are located in limited areas (certain organelles) in the cells, indicating Fe^2+ ions are in certain organelles. FIGS. 51D, H, and L are the ratiometric images of Rh101D at yellow and red channels. Fitting the ratiometric imaging data to the calibration curve gives Fe^2+ concentration in HCT-116 cells, with a value of ˜10±1 μM determined in the mitochondria of untreated cells, 14±1 μM in the mitochondria of Fe (II) treated cells, and 7±1 μM in the mitochondria of Fe(II)-chelator Bpy treated cells and ˜8±1 μM determined in the lysosomes of untreated cells, 11±1 μM in the lysosomes of Fe (II) treated cells, and 5±1 μM in the lysosomes of Bpy treated cells and the results were summarized in Table 1.

| Structure (SMILES) | Fe(II) concentration in cytosol, Bpy treated cells (ws1 cells) [µM] | Fe(II) concentration in cytosol, Fe(II) treated cells (ws1 cells) [µM] | Fe(II) concentration in lysosome, Bpy treated cells (ws1 cells) [µM] | Fe(II) concentration in lysosome, Fe(II) treated cells (ws1 cells) [µM] | Fe(II) concentration in mitochondria, Bpy treated cells (ws1 cells) [µM] | Fe(II) concentration in mitochondria, Fe(II) treated cells (ws1 cells) [µM] | Fe(II) concentration in mitochondria, Untreated cells (ws1 cells; ratio F735/F540 fitted to calibration curve) | Fe(II) concentration in lysosome, Bpy treated cells (HCT-116 cells) [µM] | Fe(II) concentration in lysosome, Fe(II) treated cells (HCT-116 cells) [µM] | Fe(II) concentration in lysosome, Untreated cells (HCT-116 cells) | Fe(II) concentration in mitochondria, Bpy treated cells (HCT-116 cells) [µM] | Fe(II) concentration in mitochondria, Fe(II) treated cells (HCT-116 cells) [µM] | Fe(II) concentration in mitochondria, Untreated cells (HCT-116 cells; ratio F625/F500 fitted to calibration curve) |
| --- | --- | --- | --- | --- | --- | --- | --- | --- | --- | --- | --- | --- | --- |
| CCN(CC)c1ccc2c(c1)OC1=C(CCC/C1=C\C=C1\N(C)c3ccccc3C1(C)C)C21c2ccccc2C(=O)N1/N=C\C=C\c1ccc(N(C)C)cc1 (stereo not shown) [NIRh-Fret, (E)-6′-(diethylamino)-2-(((1Z,2E)-3-(4-(dimethylamino)phenyl)allylidene)amino)-4′-(2-((E)-1,3,3-trimethylindolin-2-ylidene)ethylidene)-1′,2′,3′,4′-tetrahydrospiro[isoindoline-1,9′-xanthen]-3-one] | ~0 | 3 to 4 | 5 ± 1 | 10 ± 1 | 5 ± 1 | 12 ± 1 | ~8 ± 1 µM and 8 ± 1 µM |  |  |  |  |  |  |
| CN(C)c1ccc(/C=C/C=N/N2C(=O)c3ccccc3C23c2cc4c5c(c2Oc2c3cc3c6c2CCCN6CCC3)CCCN5CCC4)cc1 [Rh101D] |  |  |  |  |  |  |  | 5 ± 1 | 11 ± 1 | ~8 ± 1 µM and 8 ± 1 µM | 7 ± 1 | 14 ± 1 | ~10 ± 1 µM and 10 ± 1 µM |

Several values for one entry are separate records, joined by “and”; a condition that tells them apart may be missing. Identical values can stand only once.
